The list shows a part of the results. Single values are uncertain, as repeats are few or missing.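 The apoptosis fraction was the count of cleaved-PARP antibody-stained nuclei relative to all DNA-stained nuclei, imaged in 1,536-well plates. Screening doses were set so most cells survived, and baseline and induced cleaved-PARP levels vary greatly across cell lines.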
Tests used:
Experiment in all cases: cleaved PARP positive nuclei fraction relative to DMSO control; melanoma cells; higher = more apoptosis
Settings in all cases: library dose: low library concentration; 72 h
[1] = test system: 501Mel
[2] = test system: A101D
[3] = test system: A2058
[4] = test system: A375
[5] = test system: C32
[6] = test system: CBRC013 (line from a melanoma biopsy)
[7] = test system: CBRC014 (line from a melanoma biopsy)
[8] = test system: CBRC016 (line from a melanoma biopsy)
[9] = test system: CBRC017 (line from a melanoma biopsy)

SMILES | cleaved PARP positive nuclei fraction [1] [%] | cleaved PARP positive nuclei fraction [2] [%] | cleaved PARP positive nuclei fraction [3] [%] | cleaved PARP positive nuclei fraction [4] [%] | cleaved PARP positive nuclei fraction [5] [%] | cleaved PARP positive nuclei fraction [6] [%] | cleaved PARP positive nuclei fraction [7] [%] | cleaved PARP positive nuclei fraction [8] [%] | cleaved PARP positive nuclei fraction [9] [%]
Cn1nnc2c(C(N)=O)ncn2c1=O [temozolomide] + O=C(Oc1ccc([N+](=O)[O-])cc1)N1CCC(C(O)(c2ccc3c(c2)OCO3)c2ccc3c(c2)OCO3)CC1 [JZL184] (first compound 2 µM, partner dose 1 µM) | 70.3 | 41.4 | 128 | 55.5 | 68.3 | 76.5 | 107 | 79.4 | 44.3
Oc1cc(-c2nc(-c3ccccc3)[nH]c2-c2ccncc2)ccc1Cl + O=C(Oc1ccc([N+](=O)[O-])cc1)N1CCC(C(O)(c2ccc3c(c2)OCO3)c2ccc3c(c2)OCO3)CC1 [JZL184] (first compound 0.2 µM, partner dose 1 µM) | 93.5 | 239 | 62.5 | 286 | 89.9 | 201 | 116 | 84.6 | 151
C/C(O)=C(\C#N)C(=O)Nc1cc(Br)ccc1Br + O=c1cc(-c2cccc3c2Sc2ccccc2S3)oc(N2CCOCC2)c1 [KU55933] (first compound 2 µM, partner dose 1 µM) | 41.7 | 280 | 101 | 89.3 | 128 | 22.2 | 104 | 23.4 | 83
COc1cc2ncnc(Nc3ccc(Oc4ccccc4)cc3)c2cc1OC + C/C(O)=C(\C#N)C(=O)Nc1cc(Br)ccc1Br [LFM-A13] (first compound 2 µM, partner dose 2 µM) | 135 | 101 | 67.8 | 34.2 | 172 | 46.2 | 89.8 | 83.5 | 44.2
CC(C)(C)c1cnc(CSc2cnc(NC(=O)C3CCNCC3)s2)o1 + C/C(O)=C(\C#N)C(=O)Nc1cc(Br)ccc1Br [LFM-A13] (first compound 0.01 µM, partner dose 2 µM) | 93.5 | 109 | 51.4 | 89.7 | 114 | 128 | 104 | 67.1 | 62.5
NC(=O)Nc1cc(-c2cccc(F)c2)sc1C(=O)N[C@H]1CCCNC1 + Cc1cc(SCc2sc(-c3ccc(C(F)(F)F)c(F)c3)nc2C)ccc1OCC(=O)O [GW0742] (first compound 0.02 µM, partner dose 2 µM) | 99.7 | 67.6 | 72.1 | 582 | 148 | 56.7 | 93.4 | 72 | 87.2
C[As](C)SC[C@H](NC(=O)CC[C@H](N)C(=O)O)C(=O)NCC(=O)O [Darinaparsin] + O=S(=O)(c1ccccc1)N(CC(F)(F)F)c1ccc(C(O)(C(F)(F)F)C(F)(F)F)cc1 [T0901317] (first compound 0.4 µM, partner dose 1.4 µM) | 226 | 62.2 | 59.3 | 247 | 150 | 55.2 | 151 | 61.7 | 90.4
Cc1cc(SCc2sc(-c3ccc(C(F)(F)F)c(F)c3)nc2C)ccc1OCC(=O)O + Oc1cc(-c2nc(-c3ccccc3)[nH]c2-c2ccncc2)ccc1Cl [L779450] (first compound 2 µM, partner dose 0.2 µM) | 108 | 23.6 | 52.5 | 315 | 144 | 263 | 95.6 | 125 | 79.9
Cc1cc([N+](=O)[O-])ccc1NS(=O)(=O)c1cc(Cl)ccc1Cl + O=C(Oc1ccc([N+](=O)[O-])cc1)N1CCC(C(O)(c2ccc3c(c2)OCO3)c2ccc3c(c2)OCO3)CC1 [JZL184] (first compound 1 µM, partner dose 1 µM) | 32.7 | 201 | 33 | 116 | 72.8 | 394 | 171 | 758 | 666
COc1cc(Nc2ncc(F)c(Nc3ccc4c(n3)NC(=O)C(C)(C)O4)n2)cc(OC)c1OC [Tamatinib] + C/C(O)=C(\C#N)C(=O)Nc1cc(Br)ccc1Br [LFM-A13] (first compound 0.4 µM, partner dose 2 µM) | 125 | 299 | 157 | 174 | 157 | 157 | 106 | 105 | 227
C[C@@H]1CCN(C(=O)CC#N)C[C@@H]1N(C)c1ncnc2[nH]ccc12 + Cc1cc(SCc2sc(-c3ccc(C(F)(F)F)c(F)c3)nc2C)ccc1OCC(=O)O [GW0742] (first compound 1 µM, partner dose 2 µM) | 174 | 121 | 86 | 28.8 | 128 | 40.4 | 88.8 | 103 | 201
NCC(=O)Nc1ccc(-n2nc(C(F)(F)F)cc2-c2ccc3c(ccc4ccccc43)c2)cc1 + C/C(O)=C(\C#N)C(=O)Nc1cc(Br)ccc1Br [LFM-A13] (first compound 1 µM, partner dose 2 µM) | 1740 | 35.5 | 62 | 4050 | 128 | 200 | 107 | 60.1 | 93.3

From the supplement of paper PMC4604168 (melanoma cell lines)
